Results are given in words; binding and its absence hold for the method and conditions named.
Key:
[1] = biological target: Full-length Homo sapiens Arp8 (human) (UniProt Q9H981); test: static light scattering (SLS); Arp8, Arp4 and sub-complex I in solution; conditions not told (Supplementary Figure S8); both purified
[2] = biological target: Full-length Homo sapiens Arp8 (human) (UniProt Q9H981); test: SAXS; human Arp8 at 6.15 mg/ml (full-length) or 1.5 mg/ml (truncated construct), 20°C; Porod volume and CRYSOL curves of monomer and dimer; both purified
[3] = biological target: Saccharomyces cerevisiae Arp4 (S. cerevisiae) (UniProt P80428); test: static light scattering (SLS); Arp8, Arp4 and sub-complex I in solution; conditions not told (Supplementary Figure S8); both purified

The chains behind the UniProt entries cited, without tags or fusion partners.
UniProt Q9H981: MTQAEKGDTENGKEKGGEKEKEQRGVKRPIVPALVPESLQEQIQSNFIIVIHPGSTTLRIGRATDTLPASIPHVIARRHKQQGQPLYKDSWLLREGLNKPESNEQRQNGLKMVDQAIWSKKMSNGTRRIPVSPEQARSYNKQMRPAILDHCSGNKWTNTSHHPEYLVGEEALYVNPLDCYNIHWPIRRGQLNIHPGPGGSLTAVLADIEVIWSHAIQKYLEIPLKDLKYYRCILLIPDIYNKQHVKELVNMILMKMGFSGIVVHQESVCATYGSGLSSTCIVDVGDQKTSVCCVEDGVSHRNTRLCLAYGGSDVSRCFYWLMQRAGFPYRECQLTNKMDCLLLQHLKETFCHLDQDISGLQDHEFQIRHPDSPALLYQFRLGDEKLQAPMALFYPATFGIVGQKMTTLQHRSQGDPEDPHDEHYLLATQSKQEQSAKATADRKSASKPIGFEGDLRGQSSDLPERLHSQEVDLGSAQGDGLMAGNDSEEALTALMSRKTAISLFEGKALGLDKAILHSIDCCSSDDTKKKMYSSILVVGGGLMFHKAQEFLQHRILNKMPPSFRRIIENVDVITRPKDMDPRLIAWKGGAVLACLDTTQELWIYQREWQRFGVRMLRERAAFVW
UniProt P80428: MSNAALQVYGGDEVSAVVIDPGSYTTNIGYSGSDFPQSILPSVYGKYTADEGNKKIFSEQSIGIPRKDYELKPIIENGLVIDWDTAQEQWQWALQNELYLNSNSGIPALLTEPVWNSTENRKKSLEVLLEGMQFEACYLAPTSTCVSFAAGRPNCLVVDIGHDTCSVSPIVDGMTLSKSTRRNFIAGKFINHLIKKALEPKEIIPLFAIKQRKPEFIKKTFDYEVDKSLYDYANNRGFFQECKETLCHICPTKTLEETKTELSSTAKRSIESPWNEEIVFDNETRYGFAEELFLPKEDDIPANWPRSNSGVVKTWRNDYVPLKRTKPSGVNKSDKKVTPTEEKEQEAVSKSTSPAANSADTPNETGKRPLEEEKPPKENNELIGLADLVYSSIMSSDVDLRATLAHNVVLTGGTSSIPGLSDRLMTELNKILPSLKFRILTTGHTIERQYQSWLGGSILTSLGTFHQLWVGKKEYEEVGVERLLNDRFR

binding [2] | Substance | binding [1] | binding [3]
no binding (tested: 6.15 mg/ml) | Full-length Homo sapiens Arp8 (from UniProt Q9H981 1-624) | no binding | –
– | Saccharomyces cerevisiae Arp4 (from UniProt P80428 1-489) | – | no binding
